No constants are given. Whether binding was seen depends on the method and setting. In cells and extracts the contact can be indirect. Some binding calls cover weakened binding; strength is not graded here.
Columns and labels:
[1] = molecular target: cyclin B1 (human (endogenous in U87)) (UniProt P14635); experiment: condition: only cells undergoing mitosis (mitotic shake-off); co-IP; control U87 cells undergoing mitosis, isolated by mitotic shake-off (M lanes); IP of Cdk1, cyclin B or PKM2, Western blot
[2] = molecular target: cyclin B1 (human (endogenous in U87)) (UniProt P14635); experiment: condition: only early after release from serum starvation, before Cdk1 and cyclin B associate; co-IP; control U87 cells at early times after release from serum starvation, before Cdk1 and cyclin B associate; IP of Cdk1, cyclin B or PKM2, Western blot
[3] = molecular target: cyclin B1 (human (endogenous in U87)) (UniProt P14635); experiment: co-IP; patient-derived xenograft cell lines GBM6 and GBM39, lysates after release from serum starvation; IP of Cdk1 or cyclin B, Western blot
[4] = molecular target: cyclin B1 (human (endogenous in U87)) (UniProt P14635); experiment: co-IP; control (scrambled shRNA) U87 cells, whole-cell lysates 2-15 h after release from serum starvation; IP of Cdk1, cyclin B or PKM2 with protein A/G-agarose, washes with RIPA containing 0.5 M NaCl and 2% SDS, Western blot; with DASA-58 (40 uM, last 3 h, harvest at 10 h) less co-precipitate
[5] = molecular target: cyclin B1 (human (endogenous in U87)) (UniProt P14635); experiment: co-IP; NHA-E6-E7-hTERT-Ras cells, lysates 2-15 h after release; IP of Cdk1 or cyclin B, Western blot
[6] = molecular target: PKM2 (pyruvate kinase M2 isoform) (human (endogenous in U87)) (UniProt P14618); experiment: co-IP; control (scrambled shRNA) U87 cells, whole-cell lysates 2-15 h after release from serum starvation; IP of Cdk1, cyclin B or PKM2 with protein A/G-agarose, washes with RIPA containing 0.5 M NaCl and 2% SDS, Western blot; with DASA-58 (40 uM, last 3 h, harvest at 10 h) less co-precipitate

Amino acid sequences for entries named in this document (tags omitted).
UniProt P14635: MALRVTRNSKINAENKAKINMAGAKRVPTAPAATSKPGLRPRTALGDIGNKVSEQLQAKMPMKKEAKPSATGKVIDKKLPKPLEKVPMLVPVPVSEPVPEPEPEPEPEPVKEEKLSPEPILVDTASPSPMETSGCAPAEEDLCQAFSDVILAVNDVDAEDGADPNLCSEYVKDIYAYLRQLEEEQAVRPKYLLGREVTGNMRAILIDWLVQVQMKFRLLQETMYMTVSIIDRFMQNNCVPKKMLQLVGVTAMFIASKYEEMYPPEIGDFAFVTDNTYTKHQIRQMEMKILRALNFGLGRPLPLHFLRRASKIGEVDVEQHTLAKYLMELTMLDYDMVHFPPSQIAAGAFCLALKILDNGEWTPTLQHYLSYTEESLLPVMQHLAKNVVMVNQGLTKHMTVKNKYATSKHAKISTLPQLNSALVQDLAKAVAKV
UniProt P14618: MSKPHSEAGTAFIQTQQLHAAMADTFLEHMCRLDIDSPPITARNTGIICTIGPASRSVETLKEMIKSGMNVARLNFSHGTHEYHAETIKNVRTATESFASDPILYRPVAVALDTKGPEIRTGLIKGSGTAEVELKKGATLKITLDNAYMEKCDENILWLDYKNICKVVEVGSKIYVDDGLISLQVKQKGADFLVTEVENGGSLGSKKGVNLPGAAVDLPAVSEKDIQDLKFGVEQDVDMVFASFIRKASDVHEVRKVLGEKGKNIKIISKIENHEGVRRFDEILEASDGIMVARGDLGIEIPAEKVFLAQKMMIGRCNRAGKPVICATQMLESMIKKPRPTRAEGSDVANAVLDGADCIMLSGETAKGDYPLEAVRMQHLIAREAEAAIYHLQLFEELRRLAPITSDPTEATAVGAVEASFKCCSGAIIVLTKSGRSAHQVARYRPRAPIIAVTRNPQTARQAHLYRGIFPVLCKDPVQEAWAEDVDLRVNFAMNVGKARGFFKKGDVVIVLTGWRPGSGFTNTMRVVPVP

| Substance | binding [1] | binding [2] | binding [3] | binding [4] | binding [5] | binding [6] |
| --- | --- | --- | --- | --- | --- | --- |
| PKM2 (pyruvate kinase M2 isoform) (from UniProt P14618 1-531) | no binding | no binding | binds | binds | binds | – |
| cyclin B1 (from UniProt P14635 1-433) | – | – | – | – | – | binds |

Source: paper PMC8981990
